Here are results for 63 molecules from PubChem BioAssay AID2685 (National Center for Advancing Translational Sciences (NCATS), 2010).

Usually AC50 stands for the concentration giving half of the maximal activity seen. High values mean weaker potency, low ones greater potency.

The list shows a part of the results. Shown are side measurements of this screen, not its main read-out; they come without a call. The list favours compounds with an active or inconclusive main result. Words in brackets tell the shape of the fitted curve; partial curves, single points and poor fits give uncertain potencies.

The test can be described thus: qHTS Assay for Lipid Storage Modulators in Drosophila S3 Cells.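 On cell number change: cells counted by Cell Tracker Red CMTPX staining in the red channel.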 To be noted: BODIPY lipid droplet fluorescence, 18-24 h; for cell number change: measured here: cell count max response, cells fed with added oleic acid. In short, it runs like this: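 Drosophila S3 cells loaded with oleic acid (400 uM, as added) and compounds at several concentrations; lipid droplets imaged by 488-nm laser-scanning cytometry, 500–530 nm intensity and object ratio to cell channel. Percent activity normalized to 20 uM Triacsin C.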

The mark [1] stands for this setting: measured here: lipid fluorescence (Fed channel) AC50, cells fed with added oleic acid.
The mark [2] stands for this setting: measured here: cell number channel AC50, cells fed with added oleic acid.

On to `CN(NC(=O)c1ccccc1F)c1ncccc1[N+](=O)[O-]`, for which the cell number change is 13.7%. Moreover, the AC50 under setting [1] is 1.3 µM [falling, partial curve].
Consider `CCn1c2ccccc2c2cc(NC(=O)COC(=O)c3cc(Cl)c(N)cc3OC)ccc21`, for which the cell number change was found to be 16.4%. The AC50 under setting [1] is 0.164 µM [rising, full curve, poor fit].
Consider `CCCC1S/C(=N/N=C/c2cccs2)NC1=O` (stereo not drawn), for which the cell number change is 6.65%. Besides, the AC50 under setting [1] was 16.4 µM [rising, single point].
On to `Cc1ccc(S(=O)(=O)N(C)CC(=O)N2CCCCCCC2)cc1`, for which the cell number change is -11%. Further, the AC50 under setting [1] was 0.326 µM [falling, single point].
In the case of `CCOC(=O)Cc1csc(NC(=O)/C=C/c2ccco2)n1`, the cell number change is -0.245%. The AC50 under setting [1] is 9.2 µM [falling, partial curve].
With `C=CCOc1ccc2oc(=O)cc(C)c2c1`, the cell number change was 2.04%. For the same molecule, the AC50 under setting [1] is 0.00461 µM [rising, full curve, poor fit].
In the case of `CC(=O)c1c(C)[nH]c(C(=O)OCC(=O)Nc2cc(Cl)ccc2[N+](=O)[O-])c1C`, the cell number change was -17%.
On the same count and under the same terms, to `CCC(CC)C(=O)NCCc1ccc(OC)c(OC)c1` belongs 7.75%.
With `S=c1[nH]c2ccccc2n2cccc12`, the AC50 under setting [1] was 0.58 µM [rising, single point].
With `CCN(CC)c1ccc2c(C)c(CO)c(=O)oc2c1`, the cell number change came to 28.6%. Besides, the AC50 under setting [1] is 4.61 µM [rising, single point].
With `Cc1csc(=N)n1CC(=O)N1CCc2ccccc21`, the cell number change is 54.1%. Moreover, under setting [2], the AC50 is 20.6 µM [rising, single point].
As to `O=C(Nc1cccc(Cl)c1)c1cc(S(=O)(=O)N2CCOCC2)cs1`, the cell number change is -0.147%. The AC50 under setting [2] was 6.51 µM [rising, single point].
As to `O=C(CN1CCN(Cc2ccccc2)C1=O)NCc1cccs1`, the cell number change is -53.3%. Further, the AC50 under setting [2] was 8.2 µM [falling, partial curve]. The AC50 under setting [1] was 0.82 µM [falling, full curve].
In the case of `COc1cccc(N=Nc2c(=O)[nH]n3c(=O)cc(C)[nH]c23)c1`, the cell number change turned out to be 0.62%. The half-maximal activity concentration (AC50) under setting [1] was 0.411 µM [falling, single point].
With `CS(=O)(=O)N1N=C(c2ccc(Cl)cc2)CC1c1cccs1` (stereo not drawn), the cell number change was determined as 160%. The AC50 under setting [2] is 20.6 µM [rising, partial curve]. Also, the AC50 under setting [1] is 2.06 µM [rising, partial curve].
Take `COc1ccccc1-n1cnc2c(c1=O)c1nc3ccccc3nc1n2CCc1ccccc1`: the cell number change was determined as 28.8%. Also, under setting [2], the AC50 was 0.259 µM [rising, full curve, poor fit]. The AC50 under setting [1] is 0.231 µM [rising, full curve, poor fit].
For `Cc1cc(Oc2ccccc2F)nc(NCc2ccccc2)n1`, the cell number change is -11%. For the same molecule, under setting [2], the AC50 was 6.51 µM [rising, single point]. The AC50 under setting [1] was 6.51 µM [rising, single point].
`O=c1c2cccnc2n(-c2ccccc2)n1Cc1ccc(Cl)cc1`: the cell number change was found to be 96.7%. Also, the AC50 under setting [2] is 1.84 µM [rising, full curve]. The AC50 under setting [1] is 0.58 µM [rising, partial curve].
In the case of `CC(=O)Nc1ccccc1C`, the cell number change is 1.36%. For the same molecule, the AC50 under setting [2] is 0.461 µM [falling, single point]. Also, the AC50 under setting [1] was 0.082 µM [rising, full curve, poor fit].
On to `C/C(=N\NC(=O)c1cccc(S(=O)(=O)N2CCCC2)c1)c1ccc(OCC(=O)N(C)C)cc1`, for which the cell number change is 40.5%. The half-maximal activity concentration (AC50) under setting [2] is 8.2 µM [rising, partial curve].
In the case of `O=C(O)[C@@H]1CCCN1c1ncnc2sc3c(c12)CCC3`, the half-maximal activity concentration (AC50) under setting [1] was 2.91 µM [falling, single point].
Turning to `O=C(O)CC1SC(=O)N(Cc2ccccc2)C1=O` (stereo not drawn), the cell number change is -18.6%. Besides, the AC50 under setting [1] was 0.517 µM [falling, full curve].
As to `O=C1CC(C(=O)Nc2ccc(F)cc2)n2cnnc2N1` (stereo not drawn), the cell number change is -38%. The half-maximal activity concentration (AC50) under setting [2] is 0.259 µM [falling, full curve, poor fit]. Also, the half-maximal activity concentration (AC50) under setting [1] was 0.103 µM [falling, full curve].
As for `Cc1ccc(-c2ccc(S(=O)(=O)N3CCN(C)CC3)cc2)cc1`, the cell number change is -29.2%. Moreover, the AC50 under setting [2] was 0.00461 µM [falling, full curve, poor fit].
On to `CC(C)Oc1ccc(CCc2n[nH]c(=S)n2Cc2ccccc2)cc1`, for which the cell number change is -45.8%.
Take `CC(=O)c1cccc(NC(=O)CCC(=O)c2ccc(F)cc2)c1`: the cell number change is -2.78%. In addition, under setting [1], the AC50 is 0.58 µM [rising, single point].
As to `CCCCn1c(N)c(N(CCOC)C(=O)CSc2nnc(-c3ccncc3)n2CCC)c(=O)[nH]c1=O`, the cell number change is -20.4%. Also, under setting [1], the concentration at half-maximal activity (AC50) was 29.1 µM [falling, single point].
Consider `O=C(Cn1cnc2ccccc2c1=O)NCc1cccs1`, for which the cell number change worked out at 6.92%.
For `COc1ccc(S(=O)(=O)C(C#N)c2nc3ccccc3nc2N2CCC(C)CC2)cc1` (stereo not drawn), the cell number change was 17.1%. Also, the AC50 under setting [1] is 0.651 µM [rising, full curve, poor fit].
As for `Cc1ccc(S(=O)(=O)N2CCCC(C(=O)NCCCN3CCCCC3C)C2)cc1` (stereo not drawn), the cell number change was 176%.
In the case of `CCOc1ccc(N2C(=O)/C(=C/c3ccc(C)o3)N(C)C2=S)cc1`, the cell number change was 35.8%. In addition, the concentration at half-maximal activity (AC50) under setting [2] is 25.9 µM [rising, single point]. Besides, under setting [1], the AC50 is 16.4 µM [falling, partial curve, poor fit].
For `CCCCC1CCc2[nH]nc(C(=O)O)c2C1` (stereo not drawn), the cell number change is -7.66%. Also, the AC50 under setting [1] was 23.1 µM [rising, single point].
`CCN(CC)S(=O)(=O)c1ccc(N2CCCC2)c(NC(=O)Cc2c(F)cccc2Cl)c1`: the cell number change stood at 14.1%. Also, the concentration at half-maximal activity (AC50) under setting [2] was 0.164 µM [rising, full curve, poor fit].
For the molecule `CC(C)C1=C2OC(N)=C(C#N)C(C#N)=C2C(C)CC1` (stereo not drawn), the cell number change is -9.55%. Moreover, the AC50 under setting [1] was 0.00411 µM [falling, full curve, poor fit].
Consider `O=C(CN(C(=O)c1cc2c(s1)CCC2)C1CCCC1)NCc1cccs1`, for which the cell number change was -16.1%. For the same molecule, the concentration at half-maximal activity (AC50) under setting [1] is 0.731 µM [falling, full curve, poor fit].
For the molecule `COc1ccc(NC(=O)CSc2ccc(-c3sc(C)nc3C)nn2)cc1`, the cell number change was determined as 6.94%. Also, the half-maximal activity concentration (AC50) under setting [1] was 0.231 µM [rising, full curve].
Take `Cc1nc2c3c(-c4ccccc4)c(-c4ccccc4)oc3ncn2n1`: the AC50 under setting [1] was 4.11 µM [falling, partial curve, poor fit].
For the molecule `COCCn1c(=NC(=O)CCS(=O)(=O)c2ccccc2)sc2c(OC)ccc(OC)c21`, the cell number change came out at 4.25%. Besides, under setting [2], the AC50 was 0.0058 µM [falling, full curve, poor fit].
Regarding `CCOc1ccc(CNC(=O)C(=O)c2cn(CC(=O)N3CCOCC3)c3ccccc23)cc1OC`, the cell number change was 1.14%. The AC50 under setting [1] is 32.6 µM [falling, partial curve, poor fit].
With `Cc1ccc(NC(=O)Cn2nc(C)c3ccccc3c2=O)cc1F`, the cell number change worked out at 7.93%. Further, the AC50 under setting [1] is 3.26 µM [rising, full curve].
In the case of `CCC(=O)Oc1c(C(=O)CC)cc2c(C)cc(=O)oc2c1C`, the cell number change was -1.69%. Under setting [1], the AC50 was 3.26 µM [falling, single point].
On to `Nc1ncnc2c1c(-c1ccc(Oc3ccccc3)cc1)cn2C1CCCC1`, for which the cell number change was -26.9%.
For `OCCN1CCOCCN(CCO)CCOCC1`, the cell number change is -5.01%. The AC50 under setting [1] is 16.4 µM [falling, partial curve].
With `CN(C)CCOC(=O)c1ccc(COc2ccccc2Br)o1`, the cell number change was 24.3%. For the same molecule, the AC50 under setting [1] is 32.6 µM [rising, partial curve].
Regarding `O=C(O)c1ccccc1/C=N/NC(=O)C1CCCC1`, the cell number change was found to be 28.7%. Moreover, the AC50 under setting [1] is 29.1 µM [rising, single point].
`COc1ccc(NC(=O)CCN2CCN(S(=O)(=O)c3ccc(C(C)C)cc3)CC2)cc1`: the cell number change came to 82.7%. Besides, under setting [2], the AC50 was 23.1 µM [rising, single point].
For the molecule `O=S(=O)(c1ccc(S(=O)(=O)N(Cc2ccc(F)cc2)C2CCCC2)cc1)N1CCCC1`, the cell number change is -1.94%.
Take `O=C(COC(=O)c1ccccn1)Nc1nccs1`: the cell number change is -15%. The concentration at half-maximal activity (AC50) under setting [2] was 0.116 µM [falling, full curve].
For the molecule `CC(C)c1ccc(OCC(=O)NC2CC(C)(C)NC(C)(C)C2)c(Br)c1`, the cell number change turned out to be 21.1%.
Regarding `COc1ccc(C2CC(c3ccc4ccccc4c3OC(C)=O)=NN2C(C)=O)cc1` (stereo not drawn), the cell number change was -2.21%. Moreover, the AC50 under setting [1] was 6.51 µM [rising, single point].
Take `COc1cc(C(=O)NCCOc2cc(C)ccc2C(C)C)cc(OC)c1OC`: the cell number change was -44.7%. The AC50 under setting [2] is 18.4 µM [falling, partial curve]. Under setting [1], the AC50 was 6.51 µM [falling, partial curve, poor fit].
With `O=C(CSc1nnc2ccccn12)NNC(=O)c1ccc(Br)cc1`, the AC50 under setting [1] is 0.517 µM [rising, partial curve].
In the case of `COc1ccc(C(C)=O)cc1COC(=O)C(CO)NS(=O)(=O)c1ccc(Br)cc1` (stereo not drawn), the half-maximal activity concentration (AC50) under setting [2] was 0.82 µM [rising, single point].
As for `CCc1cc(C(=O)N2CCCC(CO)(Cc3ccc(F)cc3)C2)n(C)n1` (stereo not drawn), the cell number change is -36.1%. Besides, the AC50 under setting [2] was 29.1 µM [falling, partial curve, poor fit].
On to `Cc1ccccc1-n1nc(C)c2cc(C(=O)NCc3cccnc3)sc21`, for which the AC50 under setting [2] was 1.3 µM [rising, full curve].
As to `NC1=NC(=O)/C(=C/c2ccc(-c3ccc(S(N)(=O)=O)cc3)o2)S1`, the cell number change came to 75.7%. Besides, under setting [2], the AC50 was 18.4 µM [rising, single point].
Regarding `CC(C)(C)NC(=O)Cn1nnnc1-c1nonc1N`, the cell number change turned out to be 4.06%.
With `O=C(CSc1nnc(CNc2ccccc2)o1)N1CCc2ccccc21`, the cell number change is 3.52%. Under setting [1], the AC50 was 13 µM [rising, single point].
For the molecule `O=C(N/N=C/c1cc(Br)c(O)c(Br)c1)c1cc2c(ccc3ccccc32)o1`, the cell number change was -46.7%. The half-maximal activity concentration (AC50) under setting [2] was 20.6 µM [falling, partial curve, poor fit].
Regarding `CCc1ccnc(NS(=O)(=O)c2ccc3c(c2)CCO3)c1`, the cell number change was -2.25%. Further, under setting [1], the AC50 was 32.6 µM [falling, single point].
Consider `Cc1ccc(C)c(NC(=S)NC(C)C(c2ccccc2)N2CCN(C)CC2)c1` (stereo not drawn), for which the cell number change was 12.3%.
`CCOc1ccc2nc(C(=O)N3CCCC(C)C3)sc2c1` (stereo not drawn): the cell number change was -48.2%. Under setting [2], the AC50 is 16.4 µM [falling, single point].
For `O=C(O)C1(c2ccccc2)CCN(S(=O)(=O)c2cccc(Cl)c2)CC1`, the cell number change worked out at 4.76%.
